Two substances from article PMC7771966, “Quantitative glycoproteomics reveals cellular substrate selectivity of the ER protein quality control sensors UGGT1 and UGGT2” (eLife, 2020) can be followed below.

Amino acid sequences for entries named in this document (tags omitted). Residues count along the entry.
UniProt P15253, residues 18-418: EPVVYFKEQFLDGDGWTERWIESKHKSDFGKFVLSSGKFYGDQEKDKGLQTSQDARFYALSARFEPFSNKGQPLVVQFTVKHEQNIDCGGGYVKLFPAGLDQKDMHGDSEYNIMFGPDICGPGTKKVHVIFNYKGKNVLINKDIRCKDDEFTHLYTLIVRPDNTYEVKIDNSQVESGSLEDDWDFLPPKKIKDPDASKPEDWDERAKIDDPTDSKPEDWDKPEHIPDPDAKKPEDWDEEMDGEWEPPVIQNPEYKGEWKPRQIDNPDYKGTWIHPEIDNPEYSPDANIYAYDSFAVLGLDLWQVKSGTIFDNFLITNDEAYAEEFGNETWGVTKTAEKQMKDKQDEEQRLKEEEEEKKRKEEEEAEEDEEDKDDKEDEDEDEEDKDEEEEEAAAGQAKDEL
UniProt P11717, residues 41-2491: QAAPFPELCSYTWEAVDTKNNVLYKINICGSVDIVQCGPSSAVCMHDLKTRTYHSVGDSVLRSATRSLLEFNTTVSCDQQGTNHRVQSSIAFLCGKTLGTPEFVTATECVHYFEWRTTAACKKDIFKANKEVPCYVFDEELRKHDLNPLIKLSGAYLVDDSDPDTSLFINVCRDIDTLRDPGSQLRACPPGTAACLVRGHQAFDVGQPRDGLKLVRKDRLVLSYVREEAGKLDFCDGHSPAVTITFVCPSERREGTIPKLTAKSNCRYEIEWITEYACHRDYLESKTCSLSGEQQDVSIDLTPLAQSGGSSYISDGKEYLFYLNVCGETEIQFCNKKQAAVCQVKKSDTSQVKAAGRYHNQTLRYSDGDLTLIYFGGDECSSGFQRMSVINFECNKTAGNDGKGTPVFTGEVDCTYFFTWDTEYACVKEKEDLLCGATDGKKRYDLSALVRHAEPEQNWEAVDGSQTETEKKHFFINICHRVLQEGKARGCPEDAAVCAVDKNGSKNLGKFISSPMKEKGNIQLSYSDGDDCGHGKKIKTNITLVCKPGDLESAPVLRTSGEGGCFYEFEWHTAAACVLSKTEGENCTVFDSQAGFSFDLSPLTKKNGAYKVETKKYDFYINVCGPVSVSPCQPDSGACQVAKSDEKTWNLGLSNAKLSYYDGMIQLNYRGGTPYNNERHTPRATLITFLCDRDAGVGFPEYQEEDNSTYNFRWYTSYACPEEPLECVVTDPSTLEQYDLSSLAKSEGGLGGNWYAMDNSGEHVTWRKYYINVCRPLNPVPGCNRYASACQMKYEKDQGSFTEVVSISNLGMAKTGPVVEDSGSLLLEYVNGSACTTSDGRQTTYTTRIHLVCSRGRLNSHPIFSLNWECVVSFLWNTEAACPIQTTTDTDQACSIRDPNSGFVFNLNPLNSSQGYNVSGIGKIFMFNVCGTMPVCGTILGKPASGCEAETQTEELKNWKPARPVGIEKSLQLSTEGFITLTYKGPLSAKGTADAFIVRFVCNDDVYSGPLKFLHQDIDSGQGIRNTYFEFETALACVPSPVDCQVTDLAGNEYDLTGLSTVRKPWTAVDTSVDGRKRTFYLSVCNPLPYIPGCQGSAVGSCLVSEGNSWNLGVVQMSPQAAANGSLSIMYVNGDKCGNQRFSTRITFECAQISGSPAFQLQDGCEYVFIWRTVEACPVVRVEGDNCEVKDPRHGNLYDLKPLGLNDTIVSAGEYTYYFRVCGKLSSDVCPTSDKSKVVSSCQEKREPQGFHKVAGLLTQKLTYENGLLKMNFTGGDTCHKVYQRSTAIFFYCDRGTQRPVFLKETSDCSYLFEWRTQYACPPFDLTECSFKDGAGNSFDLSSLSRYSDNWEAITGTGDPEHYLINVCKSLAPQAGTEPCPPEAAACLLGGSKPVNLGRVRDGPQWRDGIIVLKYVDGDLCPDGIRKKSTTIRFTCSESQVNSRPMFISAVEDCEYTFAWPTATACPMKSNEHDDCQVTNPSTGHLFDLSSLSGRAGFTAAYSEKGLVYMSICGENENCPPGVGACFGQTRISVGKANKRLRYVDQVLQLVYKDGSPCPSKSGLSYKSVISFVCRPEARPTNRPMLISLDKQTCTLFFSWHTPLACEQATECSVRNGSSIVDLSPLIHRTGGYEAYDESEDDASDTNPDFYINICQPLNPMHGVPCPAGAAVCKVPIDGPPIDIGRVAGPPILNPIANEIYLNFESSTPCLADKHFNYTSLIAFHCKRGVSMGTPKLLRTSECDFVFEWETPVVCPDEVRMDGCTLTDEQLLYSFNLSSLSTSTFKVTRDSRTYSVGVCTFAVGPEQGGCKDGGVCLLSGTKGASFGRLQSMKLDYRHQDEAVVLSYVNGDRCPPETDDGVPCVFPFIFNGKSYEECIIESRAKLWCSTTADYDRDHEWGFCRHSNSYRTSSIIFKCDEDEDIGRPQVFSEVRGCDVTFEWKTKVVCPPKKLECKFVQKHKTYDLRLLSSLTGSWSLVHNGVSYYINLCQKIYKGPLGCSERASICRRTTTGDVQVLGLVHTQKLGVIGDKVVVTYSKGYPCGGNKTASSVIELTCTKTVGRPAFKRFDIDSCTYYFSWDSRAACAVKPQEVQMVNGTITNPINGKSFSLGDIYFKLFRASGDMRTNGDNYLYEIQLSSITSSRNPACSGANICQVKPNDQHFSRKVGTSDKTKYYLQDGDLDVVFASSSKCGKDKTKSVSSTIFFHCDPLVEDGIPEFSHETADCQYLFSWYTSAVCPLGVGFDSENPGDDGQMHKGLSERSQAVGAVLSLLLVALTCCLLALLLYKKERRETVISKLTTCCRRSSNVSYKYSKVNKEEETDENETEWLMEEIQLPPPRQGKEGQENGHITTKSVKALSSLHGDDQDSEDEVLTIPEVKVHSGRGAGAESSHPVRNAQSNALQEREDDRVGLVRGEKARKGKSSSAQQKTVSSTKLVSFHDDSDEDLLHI
UniProt P08069, residues 31-1367: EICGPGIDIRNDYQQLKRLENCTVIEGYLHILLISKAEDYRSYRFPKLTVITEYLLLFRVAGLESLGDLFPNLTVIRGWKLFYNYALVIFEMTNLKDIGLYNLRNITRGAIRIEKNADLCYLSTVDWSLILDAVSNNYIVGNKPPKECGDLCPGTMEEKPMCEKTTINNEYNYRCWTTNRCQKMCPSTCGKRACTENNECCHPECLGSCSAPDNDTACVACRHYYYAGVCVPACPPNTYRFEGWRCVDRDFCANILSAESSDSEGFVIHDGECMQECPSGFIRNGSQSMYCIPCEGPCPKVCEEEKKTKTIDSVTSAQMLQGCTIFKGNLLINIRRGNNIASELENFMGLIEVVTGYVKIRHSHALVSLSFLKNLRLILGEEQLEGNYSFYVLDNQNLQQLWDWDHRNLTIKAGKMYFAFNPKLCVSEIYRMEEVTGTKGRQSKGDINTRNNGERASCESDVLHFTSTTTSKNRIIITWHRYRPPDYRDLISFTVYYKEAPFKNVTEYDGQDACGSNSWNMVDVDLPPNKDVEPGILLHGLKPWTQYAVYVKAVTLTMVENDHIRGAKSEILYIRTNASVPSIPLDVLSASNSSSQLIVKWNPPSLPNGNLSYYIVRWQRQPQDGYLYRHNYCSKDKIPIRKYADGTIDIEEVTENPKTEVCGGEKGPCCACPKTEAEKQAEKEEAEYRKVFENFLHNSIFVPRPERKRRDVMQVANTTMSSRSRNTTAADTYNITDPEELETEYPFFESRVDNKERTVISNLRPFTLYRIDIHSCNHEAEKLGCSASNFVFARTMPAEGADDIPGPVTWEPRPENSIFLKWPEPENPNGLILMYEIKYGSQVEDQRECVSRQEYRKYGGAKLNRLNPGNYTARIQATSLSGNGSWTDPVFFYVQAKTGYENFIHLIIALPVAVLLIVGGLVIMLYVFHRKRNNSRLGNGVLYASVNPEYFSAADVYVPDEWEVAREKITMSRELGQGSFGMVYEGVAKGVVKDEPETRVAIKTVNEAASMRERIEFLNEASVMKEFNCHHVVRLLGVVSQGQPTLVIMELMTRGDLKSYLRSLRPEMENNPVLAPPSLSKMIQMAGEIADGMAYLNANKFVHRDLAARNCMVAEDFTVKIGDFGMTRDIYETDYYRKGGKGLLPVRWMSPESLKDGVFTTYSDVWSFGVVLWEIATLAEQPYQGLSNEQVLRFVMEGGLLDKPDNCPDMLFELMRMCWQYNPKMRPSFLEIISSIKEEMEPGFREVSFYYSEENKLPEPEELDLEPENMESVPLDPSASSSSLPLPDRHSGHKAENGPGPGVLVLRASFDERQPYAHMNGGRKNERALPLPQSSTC

For this experiment, the target named is glutathione S-transferase-calreticulin (GST-CRT) (UniProt P15253). The experiment is described as follows: condition: only lysate of ALG6/UGGT1/UGGT2-/- cells (no reglucosylation); pull-down; as a2, but lysate of ALG6/UGGT1/UGGT2-/- HEK293-EBNA1-6E cells (no reglucosylation by UGGT1 or UGGT2); only the target purified.

No constants are given. Whether binding was seen depends on the method and setting. Binding seen in cells or lysates may run through a third protein.

Regarding “cation-independent mannose-6-phosphate receptor (CI-M6PR) (from UniProt P11717 41-2491)”, the binding entry is listed as “no binding”.
As to “insulin-like growth factor type one receptor (IGF-1R) (from UniProt P08069 31-1367)”, the binding result is listed as “no binding”.
